Test results from article PMC4657098, “A Review of the Updated Pharmacophore for the Alpha 5 GABA(A) Benzodiazepine Receptor Model” (International Journal of Medicinal Chemistry, 2015).
The match of structure and compound is tentative.

Legend:
α1β3γ2 GABAA/BzR = α1β3γ2 GABAA/BzR (Homo sapiens, UniProt P14867+P18507); test: Competition binding to HEK cell membranes, α1β3γ2; conditions: read-out: Ki α1
α3β3γ2 GABAA/BzR = α3β3γ2 GABAA/BzR (Homo sapiens, UniProt P18507+P34903); test: Competition binding to HEK cell membranes, α3β3γ2; conditions: read-out: Ki α3
α2β3γ2 GABAA/BzR = α2β3γ2 GABAA/BzR (Homo sapiens, UniProt P18507+P47869); test: Competition binding to HEK cell membranes, α2β3γ2; conditions: read-out: Ki α2
α5β3γ2 GABAA/BzR = α5β3γ2 GABAA/BzR (Homo sapiens, UniProt P18507+P31644); test: Competition binding to HEK cell membranes, α5β3γ2; conditions: read-out: Ki α5

Row | SMILES | Ki (α1β3γ2 GABAA/BzR) [nM] | Ki (α3β3γ2 GABAA/BzR) [nM] | Ki (α2β3γ2 GABAA/BzR) [nM] | Ki (α5β3γ2 GABAA/BzR) [nM]
1 | C[Si](C)(C)C#Cc1ccc2c(c1)C(c1ccccc1Cl)=NCC(=O)N2 [XLI-348] | 13.6 | 1.58 | 11.2 | 82
2 | C[Si](C)(C)C#Cc1ccc2c(c1)C(c1ccccc1Cl)=NCC(=O)N2 [XLi343] | 6.38 |  | 17.7 | 150
